The target in this assay is GST tagged TAK1 truncated fragment lacking the kinase domain (human (from the RefSeq entry)). Nature of the assay: pull-down; GST-tagged and Flag- or HA-tagged proteins co-expressed in COS-7 cells; lysates (20 mM Tris pH 7.4, 150 mM NaCl, 0.5% Triton X-100) incubated with glutathione sepharose beads at 4 °C; washed three times with 250 mM NaCl, 0.5% Triton X-100; Western blot.

In publication PMC5636987 one finds binding data, which are given here for one molecule.

These are yes or no findings as the source states them, for the method shown. In cells and extracts the contact can be indirect. Where a sequence is shown, tags or fusion partners need not be part of it.

B1: Flag-POPX2 (enzyme, UniProt P49593 1-454)
chain: MSSGAPQKSSPMASGAEETPGFLDTLLQDFPALLNPEDPLPWKAPGTVLSQEEVEGELAELAMGFLGSRKAPPPLAAALAHEAVSQLLQTDLSEFRKLPREEEEEEEDDDEEEKAPVTLLDAQSLAQSFFNRLWEVAGQWQKQVPLAARASQRQWLVSIHAIRNTRRKMEDRHVSLPSFNQLFGLSDPVNRAYFAVFDGHGGVDAARYAAVHVHTNAARQPELPTDPEGALREAFRRTDQMFLRKAKRERLQSGTTGVCALIAGATLHVAWLGDSQVILVQQGQVVKLMEPHRPERQDEKARIEALGGFVSHMDCWRVNGTLAVSRAIGDVFQKPYVSGEADAASRALTGSEDYLLLACDGFFDVVPHQEVVGLVQSHLTRQQGSGLRVAEELVAAARERGSHDNITVMVVFLRDPQELLEGGNQGEGDPQAEGRRQDLPSSLPEPETQAPPRS
As for B1, the binding result is “no binding”.
